Laboratory results: PubChem BioAssay AID1347075 (National Center for Advancing Translational Sciences (NCATS), 2019)
Several values for one entry are separate records, joined by “and”; a condition that tells them apart may be missing. Identical values can stand only once. Hit rate of the full screen: of about 400,000 compounds, about 5,500 (1.4%) were called active. Inconclusive results, whose numbers are uncertain, are shown with a selection of clear calls. The call rests on the fitted dose curve; in most records, active means well fitted cell-killing curve with a large enough effect; inconclusive means small, poorly fitted or top-dose-only effect, or effect the other way; inactive means flat fitted curve, though single readings scatter. Where the call is inconclusive, the potency comes from a doubtful curve fit.

Experiment: qHTS assay for MDR1-selective chemotherapeutics: Primary screen using the parental adenocarcinoma cell KB-3-1; further: nearly all actives have a fitted effect of over 60% in size
Conditions: KB-3-1 viability, CellTiter-Glo ATP luminescence, 72 h; activity change, negative = cytotoxic: at 46.1 µM (top of the series)
In short: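 Cytotoxicity in the drug-sensitive parental line KB-3-1 was scored as loss of CellTiter-Glo luminescence following 72 h incubation with compound. Values come from curve fitting of normalized concentration-response data.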
On the % scale 0 is the no-effect control and ±100 the full control effect; potency means the concentration at half of the fitted maximal effect.

Structure (SMILES) | Potency | activity change, negative = cytotoxic
CC(C)Cn1cc(NC(=O)NCc2ccccc2)c2ccccc2c1=O | inactive | 
CCc1ccc(S(=O)(=O)Nc2cccc(-c3ccc4nnc(C)n4n3)c2)s1 | inconclusive: 20.6 µM [cytotoxic, single point] | 
COc1cc(/C=N/Nc2nncn2N)ccc1OCc1c(C)no[n+]1[O-] | inactive | 
O=C(NNC(=O)c1cccs1)c1ccncc1 |  | inconclusive: -53.2%
CCN(CC)c1ccc(/C=C(/C#N)c2nc3ccc(C)cc3[nH]2)c(OC(C)C)c1 | inconclusive: 14.6 µM [cytotoxic, partial curve, poor fit] | 
O=C(CN(CCc1ccccc1)C(=O)CNS(=O)(=O)c1ccccc1)NCC1CCCO1 (configuration not stated) | inactive | 
CCCOC(=O)c1[nH]c2c(c1C)C(=O)CC(c1cc(OC)c(OC)c(OC)c1)C2 (configuration not stated) | inconclusive: 7.31 µM [cytotoxic, partial curve] | 
COc1ccc(C(=O)NC2CCCCCC2)cc1S(=O)(=O)N1CCCc2ccccc21 | inconclusive: 0.58 µM [cytotoxic, full curve, poor fit] | 
O=C1NC[C@H](c2ccccc2)OC(=O)[C@H](Cc2ccc(F)cc2)CC/C=C/C[C@H]1CC(=O)N(CCO)Cc1ccccc1 | inconclusive: 29.1 µM [cytotoxic, single point] | 
C/C(=N\NC(=O)COc1ccccc1-c1ccccc1)c1ccccn1 | inconclusive: 29.1 µM [cytotoxic, single point] | 
O=C1C(Cl)=C(N2CCCCC2)C(=O)C(Cl)=C1c1cnc(N2CCCCC2)s1 | active: 18.4 µM | 
Cc1cc([N+](=O)[O-])ccc1NC(=O)Nc1ccccc1F | inconclusive: 14.6 µM [cytotoxic, partial curve] | 
Cc1cc2oc(=O)cc(CN3CCOCC3)c2cc1O | inactive | 
Cc1nc2cc(-c3cccs3)nn2c(NCC(C)(C)CN(C)C)c1C | inactive | 
CCN(C(=O)Cn1c(=O)n(Cc2ccc3c(c2)OCO3)c(=O)c2ccc(C(=O)NC3CCCCC3)cc21)c1cccc(C)c1 | inconclusive: 18.4 µM [cytotoxic, partial curve, poor fit] | 
O=C(Oc1ccc(-c2cnc3ccccc3n2)cc1)c1ccc(Cl)c([N+](=O)[O-])c1 | inconclusive: 32.6 µM [cytotoxic, single point] | 
CN1CCN(Cc2nc3ccccc3c(=O)n2Cc2nc(-c3ccc4ccccc4c3)cs2)CC1 | inconclusive: 16.4 µM [cytotoxic, single point] and inconclusive: 18.4 µM [cytotoxic, single point] | 
C/C(=N\NC(=O)c1cccc(S(=O)(=O)N2CCOCC2)c1)c1ccc(O)cc1 | inactive | 
Cc1ccc(NC(=O)c2ccc3c(c2)nnn3C)cc1 | inactive | 
Cc1ccc(C)c(S(=O)(=O)N2CCCCC2CCNC(=O)C(=O)NCc2ccncc2)c1 (configuration not stated) | inconclusive: 20.6 µM [cytotoxic, single point] | 
CCNc1cc2c(cc1O)CCC1C2CCC2(C)C(O)CCC12 (configuration not stated) | inconclusive: 1.84 µM [cytotoxic, full curve, poor fit] | 
CCN(CC)S(=O)(=O)c1cccc(NC(=O)CN2C(=O)NC3(CCOc4ccccc43)C2=O)c1 (configuration not stated) | inactive | 
CCCC(C)C(=O)Nc1ncc(S(=O)(=O)c2ccc([N+](=O)[O-])cc2)s1 (configuration not stated) | inconclusive: 20.6 µM [cytotoxic, single point] | 

Structure (SMILES) | Potency | activity change, negative = cytotoxic
Cc1cc(Br)ccc1NC(=O)COC(=O)c1ccccc1OCC(=O)N(C)C | inconclusive: 29.1 µM [rising, single point] | 
O=C(c1noc2c1CCCC2)N1CCC(CO)(Cc2ccccc2Cl)CC1 | inactive | 
CCOC(=O)C1CCCN(C(=O)c2ccc3nc(-c4cccc(OC)c4)oc3c2)C1 (configuration not stated) | active: 5.8 µM | 
COc1ccc(-c2sc3ccccc3c2C#CCO)cc1 | inconclusive: 25.9 µM [cytotoxic, single point] | 
CC(C)C[C@H]1CNC(=S)N1C[C@H]1CCCN1C[C@H](CC(C)C)N1C[C@H](Cc2ccc(O)cc2)N(CCc2ccccc2)C1=S | inconclusive: 29.1 µM [cytotoxic, single point] | 
CC(C)(C)C1CCc2onc(C(=O)NC3CCCC3)c2C1 (configuration not stated) | inconclusive: 29.1 µM [cytotoxic, partial curve, poor fit] | 
O=C(CSc1nncs1)NCCCc1ccccc1 | inactive | 
O=C(CCNS(=O)(=O)c1ccc2c(c1)CCN2C(=O)C1CC1)N1CCN(c2cccc(C(F)(F)F)c2)CC1 | inconclusive: 23.1 µM [cytotoxic, single point] | 
O=C1CC(N2CCN(C/C=C/c3ccccc3)CC2)C(=O)N1Cc1ccc(N2CCCC2=O)cc1 (configuration not stated) | inconclusive: 10.3 µM [cytotoxic, partial curve, poor fit] | 
COc1cc(NC(=O)C23CC4CC(C2)CC(n2cnc([N+](=O)[O-])n2)(C4)C3)cc(OC)c1 | inconclusive: 29.1 µM [rising, single point] | 
O=C(CCNS(=O)(=O)c1ccccc1F)N1CCN(C(c2ccccc2)c2ccccc2)CC1 | inconclusive: 29.1 µM [cytotoxic, single point] | 
Cn1c(Oc2ccc(Cl)cc2)c(C=O)c2ccccc21 | active: 20.6 µM | 
CCCOc1ccc(C(=O)N(CC(C)C)c2c(N)n(Cc3ccccc3)c(=O)[nH]c2=O)cc1 | inactive | 
CCOC(=O)Cc1csc(NC(=O)c2ccc(Br)o2)n1 | inactive | 
O=C(Nc1ccccc1SCC1CSc2nc3ccccc3c(=O)n21)c1ccccc1Cl (configuration not stated) | inconclusive: 29.1 µM [cytotoxic, single point] | 
Cc1cccc(CNC(=O)c2sc(=O)n(Cc3ccccc3C)c2C)c1 | inconclusive: 29.1 µM [cytotoxic, partial curve, poor fit] | 
COc1cc(/C=N/N2C(=O)CSC2=S)cc(Br)c1O | inconclusive: 0.0291 µM [rising, full curve] | 
O=C(CSc1ncnc2c1nnn2Cc1ccccc1F)N1CCN(c2ccccc2)CC1 | inconclusive: 25.9 µM [cytotoxic, single point] | 
Cc1cccc(NC(=S)N(CCCN2CCCC2)Cc2cccn2Cc2ccc(Cl)cc2)c1 | inconclusive: 29.1 µM [cytotoxic, single point] | 
COc1ccc(-c2cc(=O)c3ccccc3s2)cc1 | inactive | 
Cc1cccc(N2CCN(C(=S)Nc3ccc4nc(N5CCN(C)CC5)cc(C)c4c3)CC2)c1C | inconclusive: 18.4 µM [cytotoxic, single point] | 
Cc1c(Cl)c([N+](=O)[O-])nn1CC(=O)NC(C)C1CC2CCC1C2 (configuration not stated) | active: 23.1 µM | 
Cc1ccc(S(=O)(=O)N(Cc2n[nH]c(=S)n2-c2ccccc2)c2ccccc2)cc1 | inconclusive: 2.31 µM [rising, full curve, poor fit] | 

Structure (SMILES) | Potency | activity change, negative = cytotoxic
C[C@H](NC(=O)Cc1ccccc1)C(=O)N1CCC2(CC1)NCCc1[nH]cnc12 | inactive | 
Cc1cc(Nc2ccc(Cl)cc2)n(-c2cccc(Cl)c2)n1 | inconclusive: 29.1 µM [cytotoxic, single point] | 
COc1ccccc1-c1nnc(SCC(=O)Nc2nc(-c3ccccc3)cs2)n1C | inconclusive: 29.1 µM [cytotoxic, single point] | 
COc1ccc(C(=O)Oc2ccc(C(=S)N3CCOCC3)cc2)cc1 | inconclusive: 0.0326 µM [rising, full curve] | 
CCOc1cc(N2CCOCC2)c(OCC)cc1NC(=O)CSc1nnc(N)s1 | inactive | 
CC(C)C(=O)Nc1ncc(Cc2cccc(Cl)c2)s1 | inconclusive: 0.58 µM [rising, partial curve, poor fit] | 
CC(=O)N1CC(C)Sc2ccc(S(=O)(=O)NCc3ccc(Cl)cc3)cc21 (configuration not stated) | active: 23.1 µM | 
CCOC(=O)c1ccc(-c2ccc(C3Nc4ccccc4C(=O)N3O)o2)cc1 (configuration not stated) | inconclusive: 29.1 µM [cytotoxic, single point] | 
C/C(=N\Nc1nc(-c2cc(C)ccc2C)cs1)c1cc2c(ccc3ccccc32)oc1=O | inconclusive: 29.1 µM [cytotoxic, single point] | 
CN(C1CCCCC1)S(=O)(=O)c1cccc(C#N)c1 | inconclusive: 0.0291 µM [cytotoxic, full curve] | 
CC(=O)c1cccc(NC(=O)CCN2C(=O)C3C4CCC(C4)C3C2=O)c1 (configuration not stated) | inactive | 
COc1ccc(-n2ncc3c(=O)n(CC(=O)N4c5ccccc5CC4C)cnc32)cc1 (configuration not stated) | inactive | 
COc1ccc(CCn2c(NN)nc3c2c(=O)[nH]c(=O)n3C)cc1 | active: 13 µM | 
CCc1cc2c(=O)c(-c3nc4ccccc4n3C)coc2c(CN2CCC(C)CC2)c1O | inactive | 
Cc1cc2oc(=O)cc(C)c2cc1NC(=O)CCl | inconclusive: 25.9 µM [cytotoxic, single point] | 
Cc1ccc(OCC(=O)N(Cc2ccc(N(C)C)cc2)C2CCS(=O)(=O)C2)cc1 (configuration not stated) | inactive | 
C[C@H](O)[C@@H]1CN2CCc3c([nH]c4ccccc34)[C@@H]2C[C@@H]1N(C)C(=O)OCc1ccccc1 | inconclusive: 29.1 µM [cytotoxic, single point] | 
COc1ccc(-c2cc(C(=O)N/N=C/c3sccc3C)c3ccccc3n2)c(OC)c1 | inconclusive: 23.1 µM [cytotoxic, single point] | 
CCOc1ccccc1CN1CCCC(CNC(=O)Cc2ccc(OC)cc2)C1 (configuration not stated) | inactive | 
NC(c1csc(NC(=O)Nc2cccc(Cl)c2)n1)C1CCCCC1 (configuration not stated) | inconclusive: 29.1 µM [cytotoxic, single point] | 
CCc1ccc(OCc2ccccc2C(=O)Nc2ccc3nc(C)cc(N)c3c2)cc1 | active: 16.4 µM | 
